The record followed here is publication doi:10.1101/2020.05.15.098178.

Chains of the proteins cited; added tags and fusions are not shown. Residues count along the entry.
UniProt O22476, residues 24-1196: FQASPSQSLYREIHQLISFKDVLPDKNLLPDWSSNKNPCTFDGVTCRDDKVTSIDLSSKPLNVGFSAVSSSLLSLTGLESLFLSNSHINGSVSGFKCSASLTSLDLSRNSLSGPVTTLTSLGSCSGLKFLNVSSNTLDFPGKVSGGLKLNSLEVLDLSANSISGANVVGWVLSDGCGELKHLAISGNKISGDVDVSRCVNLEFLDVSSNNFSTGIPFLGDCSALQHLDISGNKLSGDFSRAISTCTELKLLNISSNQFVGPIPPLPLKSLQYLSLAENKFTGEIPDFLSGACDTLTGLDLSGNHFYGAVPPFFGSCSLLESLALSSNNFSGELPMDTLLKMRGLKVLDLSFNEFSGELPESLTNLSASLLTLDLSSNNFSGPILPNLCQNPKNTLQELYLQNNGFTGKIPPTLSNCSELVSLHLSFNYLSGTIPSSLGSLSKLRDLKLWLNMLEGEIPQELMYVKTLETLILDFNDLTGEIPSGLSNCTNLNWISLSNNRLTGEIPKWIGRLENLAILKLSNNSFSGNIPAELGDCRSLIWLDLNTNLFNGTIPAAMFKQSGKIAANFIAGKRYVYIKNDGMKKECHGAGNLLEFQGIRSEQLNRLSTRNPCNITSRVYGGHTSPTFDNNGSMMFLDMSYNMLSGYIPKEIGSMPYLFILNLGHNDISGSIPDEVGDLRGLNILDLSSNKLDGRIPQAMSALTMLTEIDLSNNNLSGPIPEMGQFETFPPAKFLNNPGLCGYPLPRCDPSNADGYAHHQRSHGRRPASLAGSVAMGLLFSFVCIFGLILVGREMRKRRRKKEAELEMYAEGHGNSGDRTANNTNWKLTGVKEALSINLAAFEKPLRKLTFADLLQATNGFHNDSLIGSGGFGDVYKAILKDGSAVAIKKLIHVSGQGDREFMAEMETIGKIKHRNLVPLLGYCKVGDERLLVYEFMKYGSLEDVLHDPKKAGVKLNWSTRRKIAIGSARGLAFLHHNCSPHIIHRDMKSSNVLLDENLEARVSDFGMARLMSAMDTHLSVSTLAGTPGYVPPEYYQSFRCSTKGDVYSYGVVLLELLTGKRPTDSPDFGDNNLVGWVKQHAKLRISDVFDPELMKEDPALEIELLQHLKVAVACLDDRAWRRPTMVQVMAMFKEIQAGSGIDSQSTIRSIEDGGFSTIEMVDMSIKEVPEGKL

Assay [1] has as its target T1, HA-DA1 (35S::HA-DA1, transgenic da1dar1 Arabidopsis) (Arabidopsis thaliana) (UniProt P0C7Q8).
T1 sequence: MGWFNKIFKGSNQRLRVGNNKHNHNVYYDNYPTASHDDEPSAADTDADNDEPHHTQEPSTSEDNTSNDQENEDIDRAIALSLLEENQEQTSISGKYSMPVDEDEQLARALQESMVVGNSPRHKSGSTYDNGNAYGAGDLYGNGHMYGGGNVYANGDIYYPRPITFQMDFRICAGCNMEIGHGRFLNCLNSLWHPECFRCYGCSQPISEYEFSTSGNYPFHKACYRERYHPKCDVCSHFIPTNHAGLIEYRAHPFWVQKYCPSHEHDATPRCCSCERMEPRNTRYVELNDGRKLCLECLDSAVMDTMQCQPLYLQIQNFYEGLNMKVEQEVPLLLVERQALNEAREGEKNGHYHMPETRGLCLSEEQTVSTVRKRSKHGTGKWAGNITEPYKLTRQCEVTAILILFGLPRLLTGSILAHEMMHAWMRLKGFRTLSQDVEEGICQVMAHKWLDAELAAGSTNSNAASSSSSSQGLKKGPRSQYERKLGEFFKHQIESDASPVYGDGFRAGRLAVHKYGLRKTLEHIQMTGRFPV
In words: co-IP.

Assay [2] has as its target T2, DA1-GFP (Arabidopsis thaliana) (UniProt P0C7Q8).
T2 sequence: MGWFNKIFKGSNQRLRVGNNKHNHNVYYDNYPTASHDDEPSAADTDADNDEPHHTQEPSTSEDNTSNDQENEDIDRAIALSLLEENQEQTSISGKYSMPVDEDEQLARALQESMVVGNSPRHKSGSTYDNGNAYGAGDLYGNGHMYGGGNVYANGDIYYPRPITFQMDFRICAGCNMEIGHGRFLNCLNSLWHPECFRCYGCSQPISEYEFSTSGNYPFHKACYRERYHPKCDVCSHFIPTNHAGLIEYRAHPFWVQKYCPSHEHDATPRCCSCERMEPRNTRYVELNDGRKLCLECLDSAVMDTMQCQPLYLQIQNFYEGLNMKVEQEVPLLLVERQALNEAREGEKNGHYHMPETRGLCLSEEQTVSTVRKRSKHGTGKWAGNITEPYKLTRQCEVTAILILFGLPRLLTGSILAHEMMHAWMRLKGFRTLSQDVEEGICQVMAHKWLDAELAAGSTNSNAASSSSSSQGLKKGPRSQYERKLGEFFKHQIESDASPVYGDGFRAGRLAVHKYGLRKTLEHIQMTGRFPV
In words: co-IP.

Assay [3] concerns the target DA1 wt (yeast two-hybrid GAL4-AD and GAL4-BD fusions) (Arabidopsis thaliana) (UniProt P0C7Q8). As to the kind of experiment: two-hybrid.
Assay [4] concerns the target DA1-3D phospho-mimic (HA-DA1-3D and DA1-3D-FLAG co-expressed in da1dar1 mesophyll protoplasts) (Arabidopsis thaliana) (UniProt P0C7Q8). As to the kind of experiment: co-IP.
The target in assay [5] is T3, DA1 wt (HA-DA1 and DA1-FLAG co-expressed in da1dar1 mesophyll protoplasts) (Arabidopsis thaliana), P0C7Q8.
T3 chain: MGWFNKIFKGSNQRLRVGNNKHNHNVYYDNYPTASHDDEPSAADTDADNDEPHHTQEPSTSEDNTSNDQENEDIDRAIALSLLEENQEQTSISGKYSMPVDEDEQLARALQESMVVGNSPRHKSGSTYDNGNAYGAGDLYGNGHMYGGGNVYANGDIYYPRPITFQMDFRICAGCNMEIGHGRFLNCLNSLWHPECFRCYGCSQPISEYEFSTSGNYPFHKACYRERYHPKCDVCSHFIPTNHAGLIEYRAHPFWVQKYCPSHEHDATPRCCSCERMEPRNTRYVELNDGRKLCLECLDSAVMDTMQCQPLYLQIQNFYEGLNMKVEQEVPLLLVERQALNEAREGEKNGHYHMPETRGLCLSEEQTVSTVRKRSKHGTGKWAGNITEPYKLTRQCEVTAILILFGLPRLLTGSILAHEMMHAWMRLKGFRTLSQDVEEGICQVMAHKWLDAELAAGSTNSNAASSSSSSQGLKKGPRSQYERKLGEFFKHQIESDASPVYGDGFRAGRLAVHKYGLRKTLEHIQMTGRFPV
In words: co-IP. As to conditions: remark: other sources report otherwise.

For assay [6], the target named is DA1-3D phospho-mimic (yeast two-hybrid GAL4-AD and GAL4-BD fusions) (Arabidopsis thaliana) (UniProt P0C7Q8). As to the kind of experiment: two-hybrid.
For assay [7], the target named is T4, DA1 peptidase (bait of the yeast two-hybrid screen) (Arabidopsis thaliana) (UniProt P0C7Q8).
T4 sequence: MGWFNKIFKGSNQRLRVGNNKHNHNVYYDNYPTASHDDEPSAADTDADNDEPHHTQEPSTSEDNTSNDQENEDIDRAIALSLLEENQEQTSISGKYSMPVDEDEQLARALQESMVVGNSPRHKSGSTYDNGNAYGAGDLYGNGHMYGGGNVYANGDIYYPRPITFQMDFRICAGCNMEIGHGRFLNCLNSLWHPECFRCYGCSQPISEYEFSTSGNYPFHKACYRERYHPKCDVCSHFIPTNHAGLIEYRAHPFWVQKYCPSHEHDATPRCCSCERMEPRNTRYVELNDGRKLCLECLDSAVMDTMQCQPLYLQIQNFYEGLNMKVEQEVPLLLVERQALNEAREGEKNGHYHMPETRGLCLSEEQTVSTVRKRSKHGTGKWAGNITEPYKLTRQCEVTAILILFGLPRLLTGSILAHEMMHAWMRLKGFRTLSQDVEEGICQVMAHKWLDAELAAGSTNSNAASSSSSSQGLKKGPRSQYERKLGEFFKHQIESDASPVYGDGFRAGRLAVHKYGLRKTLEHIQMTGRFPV
As to the kind of experiment: two-hybrid.

In assay [8] the target is T2, DA1-GFP (Arabidopsis thaliana). In words: co-IP. This is another data set of the same source.

Read-outs that look alike come from different tables or passages of the source. These are yes or no findings as the source states them, for the method shown. For some assays here: In cells and extracts the contact can be indirect. Some binding calls cover weakened binding; strength is not graded here. For some assays here: Sequences can lack the tags named with a protein.

With “BRI1-GFP (BRI1::BRI1-GFP, transgenic da1dar1 Arabidopsis) (from UniProt O22476 24-1196) (receptor)”, the binding entry in assay [1] was “binds”. “BRI1-3FLAG (from UniProt O22476 24-1196) (receptor)”: the binding result in assay [2] is on record as “binds”.

B1: DA1 wt (yeast two-hybrid GAL4-AD and GAL4-BD fusions) (enzyme, UniProt P0C7Q8 1-532)
chain: MGWFNKIFKGSNQRLRVGNNKHNHNVYYDNYPTASHDDEPSAADTDADNDEPHHTQEPSTSEDNTSNDQENEDIDRAIALSLLEENQEQTSISGKYSMPVDEDEQLARALQESMVVGNSPRHKSGSTYDNGNAYGAGDLYGNGHMYGGGNVYANGDIYYPRPITFQMDFRICAGCNMEIGHGRFLNCLNSLWHPECFRCYGCSQPISEYEFSTSGNYPFHKACYRERYHPKCDVCSHFIPTNHAGLIEYRAHPFWVQKYCPSHEHDATPRCCSCERMEPRNTRYVELNDGRKLCLECLDSAVMDTMQCQPLYLQIQNFYEGLNMKVEQEVPLLLVERQALNEAREGEKNGHYHMPETRGLCLSEEQTVSTVRKRSKHGTGKWAGNITEPYKLTRQCEVTAILILFGLPRLLTGSILAHEMMHAWMRLKGFRTLSQDVEEGICQVMAHKWLDAELAAGSTNSNAASSSSSSQGLKKGPRSQYERKLGEFFKHQIESDASPVYGDGFRAGRLAVHKYGLRKTLEHIQMTGRFPV
Take B1: in assay [3], the binding result is listed as “binds weakly”.

B2: DA1-3D phospho-mimic (HA-DA1-3D and DA1-3D-FLAG co-expressed in da1dar1 mesophyll protoplasts) (enzyme, UniProt P0C7Q8 1-532)
chain: MGWFNKIFKGSNQRLRVGNNKHNHNVYYDNYPTASHDDEPSAADTDADNDEPHHTQEPSTSEDNTSNDQENEDIDRAIALSLLEENQEQTSISGKYSMPVDEDEQLARALQESMVVGNSPRHKSGSTYDNGNAYGAGDLYGNGHMYGGGNVYANGDIYYPRPITFQMDFRICAGCNMEIGHGRFLNCLNSLWHPECFRCYGCSQPISEYEFSTSGNYPFHKACYRERYHPKCDVCSHFIPTNHAGLIEYRAHPFWVQKYCPSHEHDATPRCCSCERMEPRNTRYVELNDGRKLCLECLDSAVMDTMQCQPLYLQIQNFYEGLNMKVEQEVPLLLVERQALNEAREGEKNGHYHMPETRGLCLSEEQDVDDVRKRSKHGTGKWAGNITEPYKLTRQCEVTAILILFGLPRLLTGSILAHEMMHAWMRLKGFRTLSQDVEEGICQVMAHKWLDAELAAGSTNSNAASSSSSSQGLKKGPRSQYERKLGEFFKHQIESDASPVYGDGFRAGRLAVHKYGLRKTLEHIQMTGRFPV
With B2, the binding result in assay [4] is “binds”.

B3: DA1 wt (HA-DA1 and DA1-FLAG co-expressed in da1dar1 mesophyll protoplasts), P0C7Q8 1-532 (enzyme)
chain: MGWFNKIFKGSNQRLRVGNNKHNHNVYYDNYPTASHDDEPSAADTDADNDEPHHTQEPSTSEDNTSNDQENEDIDRAIALSLLEENQEQTSISGKYSMPVDEDEQLARALQESMVVGNSPRHKSGSTYDNGNAYGAGDLYGNGHMYGGGNVYANGDIYYPRPITFQMDFRICAGCNMEIGHGRFLNCLNSLWHPECFRCYGCSQPISEYEFSTSGNYPFHKACYRERYHPKCDVCSHFIPTNHAGLIEYRAHPFWVQKYCPSHEHDATPRCCSCERMEPRNTRYVELNDGRKLCLECLDSAVMDTMQCQPLYLQIQNFYEGLNMKVEQEVPLLLVERQALNEAREGEKNGHYHMPETRGLCLSEEQTVSTVRKRSKHGTGKWAGNITEPYKLTRQCEVTAILILFGLPRLLTGSILAHEMMHAWMRLKGFRTLSQDVEEGICQVMAHKWLDAELAAGSTNSNAASSSSSSQGLKKGPRSQYERKLGEFFKHQIESDASPVYGDGFRAGRLAVHKYGLRKTLEHIQMTGRFPV
Turning to B3, the binding entry in assay [5] is recorded as “binds”.

B4: DA1-3D phospho-mimic (yeast two-hybrid GAL4-AD and GAL4-BD fusions) (enzyme, UniProt P0C7Q8 1-532)
chain: MGWFNKIFKGSNQRLRVGNNKHNHNVYYDNYPTASHDDEPSAADTDADNDEPHHTQEPSTSEDNTSNDQENEDIDRAIALSLLEENQEQTSISGKYSMPVDEDEQLARALQESMVVGNSPRHKSGSTYDNGNAYGAGDLYGNGHMYGGGNVYANGDIYYPRPITFQMDFRICAGCNMEIGHGRFLNCLNSLWHPECFRCYGCSQPISEYEFSTSGNYPFHKACYRERYHPKCDVCSHFIPTNHAGLIEYRAHPFWVQKYCPSHEHDATPRCCSCERMEPRNTRYVELNDGRKLCLECLDSAVMDTMQCQPLYLQIQNFYEGLNMKVEQEVPLLLVERQALNEAREGEKNGHYHMPETRGLCLSEEQDVDDVRKRSKHGTGKWAGNITEPYKLTRQCEVTAILILFGLPRLLTGSILAHEMMHAWMRLKGFRTLSQDVEEGICQVMAHKWLDAELAAGSTNSNAASSSSSSQGLKKGPRSQYERKLGEFFKHQIESDASPVYGDGFRAGRLAVHKYGLRKTLEHIQMTGRFPV
With B4, in assay [6], the binding entry is recorded as “binds”.

B5: cytoplasmic domain of the Receptor-Like Kinase (RLK) TMK4 (domain or fragment, UniProt Q9LK43 494-928)
chain: VYKFVMKRKYGRFNRTDPEKVGKILVSDAVSNGGSGNGGYANGHGANNFNALNSPSSGDNSDRFLLEGGSVTIPMEVLRQVTNNFSEDNILGRGGFGVVYAGELHDGTKTAVKRMECAAMGNKGMSEFQAEIAVLTKVRHRHLVALLGYCVNGNERLLVYEYMPQGNLGQHLFEWSELGYSPLTWKQRVSIALDVARGVEYLHSLAQQSFIHRDLKPSNILLGDDMRAKVADFGLVKNAPDGKYSVETRLAGTFGYLAPEYAATGRVTTKVDVYAFGVVLMEILTGRKALDDSLPDERSHLVTWFRRILINKENIPKALDQTLEADEETMESIYRVAELAGHCTAREPQQRPDMGHAVNVLGPLVEKWKPSCQEEEESFGIDVNMSLPQALQRWQNEGTSSSTMFHGDFSYSQTQSSIPPKASGFPNTFDSADGR
Regarding B5, in assay [7], the binding entry is on record as “binds”.

B6: BAK1-3FLAG (receptor, UniProt Q94F62 26-615)
chain: NAEGDALSALKNSLADPNKVLQSWDATLVTPCTWFHVTCNSDNSVTRVDLGNANLSGQLVMQLGQLPNLQYLELYSNNITGTIPEQLGNLTELVSLDLYLNNLSGPIPSTLGRLKKLRFLRLNNNSLSGEIPRSLTAVLTLQVLDLSNNPLTGDIPVNGSFSLFTPISFANTKLTPLPASPPPPISPTPPSPAGSNRITGAIAGGVAAGAALLFAVPAIALAWWRRKKPQDHFFDVPAEEDPEVHLGQLKRFSLRELQVASDNFSNKNILGRGGFGKVYKGRLADGTLVAVKRLKEERTQGGELQFQTEVEMISMAVHRNLLRLRGFCMTPTERLLVYPYMANGSVASCLRERPESQPPLDWPKRQRIALGSARGLAYLHDHCDPKIIHRDVKAANILLDEEFEAVVGDFGLAKLMDYKDTHVTTAVRGTIGHIAPEYLSTGKSSEKTDVFGYGVMLLELITGQRAFDLARLANDDDVMLLDWVKGLLKEKKLEALVDVDLQGNYKDEEVEQLIQVALLCTQSSPMERPKMSEVVRMLEGDGLAERWEEWQKEEMFRQDFNYPTHHPAVSGWIIGDSTSQIENEYPSGPR
Turning to B6, in assay [8], the binding result was “binds weakly”.
